# PubChem BioAssay (Tox21)
# By UniProt entry, the sequences of proteins in these tests, tags left out.
# UniProt P14416, whole entry, looked up: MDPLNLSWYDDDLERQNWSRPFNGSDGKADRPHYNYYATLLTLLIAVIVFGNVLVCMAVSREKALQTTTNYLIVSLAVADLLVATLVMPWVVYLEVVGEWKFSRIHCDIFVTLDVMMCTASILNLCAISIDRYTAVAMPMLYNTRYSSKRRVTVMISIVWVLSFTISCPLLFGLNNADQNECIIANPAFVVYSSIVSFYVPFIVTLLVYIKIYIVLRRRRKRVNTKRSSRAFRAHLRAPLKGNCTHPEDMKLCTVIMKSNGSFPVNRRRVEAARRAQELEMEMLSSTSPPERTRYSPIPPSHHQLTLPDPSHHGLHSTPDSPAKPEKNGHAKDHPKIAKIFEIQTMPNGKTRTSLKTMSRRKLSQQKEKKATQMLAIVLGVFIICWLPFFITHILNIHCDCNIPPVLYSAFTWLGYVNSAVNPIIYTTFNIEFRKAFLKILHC
# Where “and” joins values, the source holds several entries; their conditions need not be identical. Equal entries are not always repeated. The inconclusive results got no clear call from the source; some entries with a clear call stand among them for comparison. A call without a number means that no potency is given here. For some of these results: A potency beside an inconclusive call is a rough fit, not a confirmed value. Where a structure was tested more than once in an assay, its records may differ in their call. Calls of active or inactive are those of the source. Unless noted, the call rests on the fitted dose curve.
# Tests used:
# [1] = p53 small molecule agonists, cell-based qHTS assay: qHTS cell viability counter screen (AID 1963581); further: nearly all actives have a fitted effect of over 45% in size
# Procedure, shortened: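 p53RE-bla HCT-116 cells were exposed to compounds for 16 h at 37 C; after the beta-lactamase FRET read in the same wells, CellTiter-Glo was added and luminescence (intracellular ATP) read after 30 min at room temperature.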
# [2] = cAMP Responsive Elements (CRE) small molecule agonists, cell-based qHTS assay (AID 1963590); settings: CRE-bla HEK293T, beta-lactamase FRET ratio, 3 h; activation: at 92.4 µM (top of the series) unless noted
# Procedure, shortened: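 CRE-bla HEK 293T cells in DMEM with 10% dialyzed FBS, NEAA, pyruvate and 25 mM HEPES were plated 18 h at 37 C/5% CO2, then exposed to compounds in DMSO for 3 h before LiveBLAzer B/G FRET substrate addition.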
# [3] = biological target: Beta-2 adrenergic receptor (Homo sapiens) (UniProt P07550); test: Adrenergic beta2 receptor (ADRB2) small molecule antagonists, cell-based qHTS assay (AID 1963592); settings: CHO-ADRB2 cells, isoproterenol-stimulated cAMP HTRF ratio, 0.5 h; activity change, negative = inhibition: at 92.4 µM (top of the series) unless noted; further: nearly all actives have a fitted effect of over 50% in size
# Procedure, shortened: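 Cells (CHO, stable ADRB2 overexpression) incubated 18-20hr at 37C; compounds added from DMSO; agonist mix (1nM isoproterenol, 100uM IBMX, 25uM Ro-20-1724) added; 0.5hr RT; d2-cAMP and anti-cAMP-cryptate added; 1hr RT; 665/615 nm read.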
# [4] = biological target: Beta-2 adrenergic receptor (Homo sapiens) (UniProt P07550); test: Adrenergic beta2 receptor (ADRB2) small molecule agonists, cell-based qHTS assay (AID 1963593); settings: CHO-ADRB2 cells, cAMP HTRF, 30 min; activation: at 92.4 µM (top of the series) unless noted;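 on activation: CHO cells stably overexpressing human ADRB2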
# Procedure, shortened: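 CHO cells stably over-expressing ADRB2 were plated overnight at 37C, then dosed with compounds plus a stimulation mix containing 100uM IBMX and 25uM Ro-20-1724 for 0.5hr at room temperature. cAMP was measured by HTRF competition, 1hr.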
# [5] = biological target: D(2) dopamine receptor (Homo sapiens) (UniProt P14416); test: Dopamine D2 receptor (DRD2) small molecule agonists, cell-based qHTS assay (AID 1963594); settings: HEK293-DRD2 cAMP HTRF, agonist mode, 30 min; activation: at 92.4 µM (top of the series) unless noted; further: nearly all actives have a fitted effect of over 35% in size
# Procedure, shortened: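 HEK293 cells stably expressing DRD2 were cultured 24 h at 37 C, then given Ro20-1724 (0.1 mM final) and compounds for 10 min at room temperature. NKH477 (200nM) was then added for 30 min. cAMP was read by HTRF.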
# [6] = cAMP Responsive Elements (CRE) small molecule antagonists, cell-based qHTS assay (AID 1963591; active means well fitted inhibition curve with a large enough effect in the signal ratio in the repeat runs, not every such curve was filed as active; inconclusive means weak or mixed curves, or effect the other way; the % refers to the signal ratio); settings: CRE-bla HEK293T, beta-lactamase FRET ratio; activity change, negative = inhibition: at 92.4 µM (top of the series) unless noted
# Procedure, shortened: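 CRE-bla HEK293T cells were plated 18 h at 37 °C/5% CO2, pinned with compound in DMSO, then stimulated with NKH477 at 0.25 uM final for 3 h. LiveBLAzer B/G FRET substrate was added and plates incubated 2 h at room temperature.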
# [7] = biological target: D(2) dopamine receptor (Homo sapiens) (UniProt P14416); test: Dopamine D2 receptor (DRD2) small molecule antagonists, cell-based qHTS assay (AID 1963595; active means well fitted inhibition curve with a large enough effect in the signal ratio in the repeat runs, with a control signal flat; inconclusive means weak or mixed curves, or effect the other way; the % refers to the signal ratio); settings: HEK293-DRD2 cAMP HTRF antagonist mode; activity change, negative = inhibition: at 92.4 µM (top of the series) unless noted
# Procedure, shortened: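 HEK293 cells stably expressing DRD2, preincubated with 0.1 mM Ro20-1724 and compounds 10 min, were stimulated with 200 nM NKH477 plus 12 nM quinpirole for 30 min at room temperature; cAMP measured by HTRF (665/620 nm).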
# Potency means the concentration at half of the fitted maximal effect.
structure (smiles),measurement,setting,value
CC1=C(C)S(=O)(=O)CCS1(=O)=O,Potency,[1],inactive
same,Potency,[2],inactive
same,Potency,[3],active: 13.7 µM
same,Potency,[4],"inconclusive: 6 µM [inhibitor, full curve, poor fit] and inconclusive: 48.6 µM [inhibitor, single point]"
CC[C@@H](CO)NCCN[C@@H](CC)CO,Potency,[1],inactive
same,Potency,[2],inactive
same,activation,[4],inconclusive: 0.996% [at 42.5 µM]
O=NN(CCCl)C(=O)NC1CCCCC1,Potency,[1],inactive
same,Potency,[2],inactive
same,Potency,[4],inactive
same,Potency,[5],inconclusive: 28.2 µM
COc1cc(NCc2ccc3nc(N)nc(N)c3c2C)cc(OC)c1OC,Potency,[1],"inconclusive: 0.397 µM [cytotoxic, single point]"
same,Potency,[2],"inconclusive: 23.7 µM [activator, partial curve]"
same,Potency,[6],"inconclusive: 15 µM [activator, partial curve]"
same,Potency,[4],inactive
COc1ncnc(NS(=O)(=O)c2ccc(N)cc2)c1OC,Potency,[1],inactive
same,Potency,[2],inactive
same,Potency,[6],inactive
same,Potency,[4],inactive
Cc1nc2c([nH]1)c(=O)n(C)c(=O)n2Cc1ccco1,Potency,[1],inactive
same,Potency,[2],"inconclusive: 26.6 µM [rising, partial curve]"
same,Potency,[4],"inconclusive: 1.19 µM [inhibitor, single point]"
same,Potency,[5],inconclusive: 29.8 µM
CN(C)c1ccc(CCO)cc1,Potency,[1],"inconclusive: 16.1 µM [rising, full curve]"
same,Potency,[2],"inconclusive: 30.5 µM [rising, full curve, poor fit]"
same,Potency,[4],inactive
CNCCc1ccccn1,Potency,[1],inactive
same,Potency,[2],inactive
same,Potency,[4],inactive
CC(=O)Oc1cccc2c1C(=O)c1c(OC(C)=O)cc(C(=O)O)cc1C2=O,Potency,[1],"inconclusive: 22.3 µM [cytotoxic, single point]"
same,Potency,[2],"inconclusive: 21.1 µM [rising, partial curve]"
same,Potency,[6],"inconclusive: 18.8 µM [fluorescent, partial curve]"
same,activation,[4],inconclusive: 18.3% [at 42.5 µM]
same,Potency,[7],"inconclusive: 33.5 µM [cytotoxic, single point]"
